Test results reported in paper PMC11229335, “The translocation activity of Rad54 reduces crossover outcomes during homologous recombination”.
No constants are given. Whether binding was seen depends on the method and setting. Some entries that bind do so weakly or less than the wild type. Each block holds one binder with its values, some of them ahead of it.

Columns and labels:
Assay in all cases: SEC; size exclusion chromatography of purified Rad54 proteins; conditions not shown (Supplementary Figure S5A-C); both purified
[1] = target: T1, Rad54 (wild type, S. cerevisiae) (S. cerevisiae), P32863; settings: remark: other sources report otherwise
T1 chain: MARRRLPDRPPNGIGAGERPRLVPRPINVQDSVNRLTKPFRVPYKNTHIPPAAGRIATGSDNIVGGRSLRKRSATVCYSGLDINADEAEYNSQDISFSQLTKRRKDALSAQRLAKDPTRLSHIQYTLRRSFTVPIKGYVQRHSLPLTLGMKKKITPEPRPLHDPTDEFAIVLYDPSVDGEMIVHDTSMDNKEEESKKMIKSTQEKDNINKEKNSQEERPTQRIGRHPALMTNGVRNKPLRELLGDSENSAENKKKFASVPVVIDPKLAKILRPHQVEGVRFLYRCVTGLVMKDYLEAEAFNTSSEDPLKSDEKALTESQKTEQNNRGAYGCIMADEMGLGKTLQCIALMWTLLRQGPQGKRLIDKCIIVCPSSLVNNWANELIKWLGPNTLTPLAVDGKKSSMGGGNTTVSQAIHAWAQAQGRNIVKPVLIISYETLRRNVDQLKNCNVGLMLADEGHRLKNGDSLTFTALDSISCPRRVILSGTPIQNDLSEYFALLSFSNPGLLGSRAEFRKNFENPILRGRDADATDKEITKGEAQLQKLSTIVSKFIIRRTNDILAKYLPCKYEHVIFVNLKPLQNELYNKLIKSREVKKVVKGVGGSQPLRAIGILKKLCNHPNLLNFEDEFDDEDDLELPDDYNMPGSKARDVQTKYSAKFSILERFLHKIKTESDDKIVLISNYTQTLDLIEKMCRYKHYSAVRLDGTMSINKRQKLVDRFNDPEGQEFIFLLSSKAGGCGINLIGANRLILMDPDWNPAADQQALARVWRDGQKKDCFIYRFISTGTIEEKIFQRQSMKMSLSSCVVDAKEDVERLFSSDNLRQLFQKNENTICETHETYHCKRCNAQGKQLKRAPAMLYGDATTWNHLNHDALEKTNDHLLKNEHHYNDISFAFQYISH

[2] = target: Rad54R272A (S. cerevisiae) (S. cerevisiae) (UniProt P32863)
[3] = target: Rad54R272Q (S. cerevisiae) (S. cerevisiae) (UniProt P32863)

binding [1]: binds
B1: Rad54 (wild type, S. cerevisiae), P32863 1-898 (enzyme)
chain: MARRRLPDRPPNGIGAGERPRLVPRPINVQDSVNRLTKPFRVPYKNTHIPPAAGRIATGSDNIVGGRSLRKRSATVCYSGLDINADEAEYNSQDISFSQLTKRRKDALSAQRLAKDPTRLSHIQYTLRRSFTVPIKGYVQRHSLPLTLGMKKKITPEPRPLHDPTDEFAIVLYDPSVDGEMIVHDTSMDNKEEESKKMIKSTQEKDNINKEKNSQEERPTQRIGRHPALMTNGVRNKPLRELLGDSENSAENKKKFASVPVVIDPKLAKILRPHQVEGVRFLYRCVTGLVMKDYLEAEAFNTSSEDPLKSDEKALTESQKTEQNNRGAYGCIMADEMGLGKTLQCIALMWTLLRQGPQGKRLIDKCIIVCPSSLVNNWANELIKWLGPNTLTPLAVDGKKSSMGGGNTTVSQAIHAWAQAQGRNIVKPVLIISYETLRRNVDQLKNCNVGLMLADEGHRLKNGDSLTFTALDSISCPRRVILSGTPIQNDLSEYFALLSFSNPGLLGSRAEFRKNFENPILRGRDADATDKEITKGEAQLQKLSTIVSKFIIRRTNDILAKYLPCKYEHVIFVNLKPLQNELYNKLIKSREVKKVVKGVGGSQPLRAIGILKKLCNHPNLLNFEDEFDDEDDLELPDDYNMPGSKARDVQTKYSAKFSILERFLHKIKTESDDKIVLISNYTQTLDLIEKMCRYKHYSAVRLDGTMSINKRQKLVDRFNDPEGQEFIFLLSSKAGGCGINLIGANRLILMDPDWNPAADQQALARVWRDGQKKDCFIYRFISTGTIEEKIFQRQSMKMSLSSCVVDAKEDVERLFSSDNLRQLFQKNENTICETHETYHCKRCNAQGKQLKRAPAMLYGDATTWNHLNHDALEKTNDHLLKNEHHYNDISFAFQYISH

binding [2]: binds
B2: Rad54R272A (S. cerevisiae) (enzyme, UniProt P32863 1-898)
chain: MARRRLPDRPPNGIGAGERPRLVPRPINVQDSVNRLTKPFRVPYKNTHIPPAAGRIATGSDNIVGGRSLRKRSATVCYSGLDINADEAEYNSQDISFSQLTKRRKDALSAQRLAKDPTRLSHIQYTLRRSFTVPIKGYVQRHSLPLTLGMKKKITPEPRPLHDPTDEFAIVLYDPSVDGEMIVHDTSMDNKEEESKKMIKSTQEKDNINKEKNSQEERPTQRIGRHPALMTNGVRNKPLRELLGDSENSAENKKKFASVPVVIDPKLAKILAPHQVEGVRFLYRCVTGLVMKDYLEAEAFNTSSEDPLKSDEKALTESQKTEQNNRGAYGCIMADEMGLGKTLQCIALMWTLLRQGPQGKRLIDKCIIVCPSSLVNNWANELIKWLGPNTLTPLAVDGKKSSMGGGNTTVSQAIHAWAQAQGRNIVKPVLIISYETLRRNVDQLKNCNVGLMLADEGHRLKNGDSLTFTALDSISCPRRVILSGTPIQNDLSEYFALLSFSNPGLLGSRAEFRKNFENPILRGRDADATDKEITKGEAQLQKLSTIVSKFIIRRTNDILAKYLPCKYEHVIFVNLKPLQNELYNKLIKSREVKKVVKGVGGSQPLRAIGILKKLCNHPNLLNFEDEFDDEDDLELPDDYNMPGSKARDVQTKYSAKFSILERFLHKIKTESDDKIVLISNYTQTLDLIEKMCRYKHYSAVRLDGTMSINKRQKLVDRFNDPEGQEFIFLLSSKAGGCGINLIGANRLILMDPDWNPAADQQALARVWRDGQKKDCFIYRFISTGTIEEKIFQRQSMKMSLSSCVVDAKEDVERLFSSDNLRQLFQKNENTICETHETYHCKRCNAQGKQLKRAPAMLYGDATTWNHLNHDALEKTNDHLLKNEHHYNDISFAFQYISH

binding [3]: binds
B3: Rad54R272Q (S. cerevisiae) (enzyme, UniProt P32863 1-898)
chain: MARRRLPDRPPNGIGAGERPRLVPRPINVQDSVNRLTKPFRVPYKNTHIPPAAGRIATGSDNIVGGRSLRKRSATVCYSGLDINADEAEYNSQDISFSQLTKRRKDALSAQRLAKDPTRLSHIQYTLRRSFTVPIKGYVQRHSLPLTLGMKKKITPEPRPLHDPTDEFAIVLYDPSVDGEMIVHDTSMDNKEEESKKMIKSTQEKDNINKEKNSQEERPTQRIGRHPALMTNGVRNKPLRELLGDSENSAENKKKFASVPVVIDPKLAKILQPHQVEGVRFLYRCVTGLVMKDYLEAEAFNTSSEDPLKSDEKALTESQKTEQNNRGAYGCIMADEMGLGKTLQCIALMWTLLRQGPQGKRLIDKCIIVCPSSLVNNWANELIKWLGPNTLTPLAVDGKKSSMGGGNTTVSQAIHAWAQAQGRNIVKPVLIISYETLRRNVDQLKNCNVGLMLADEGHRLKNGDSLTFTALDSISCPRRVILSGTPIQNDLSEYFALLSFSNPGLLGSRAEFRKNFENPILRGRDADATDKEITKGEAQLQKLSTIVSKFIIRRTNDILAKYLPCKYEHVIFVNLKPLQNELYNKLIKSREVKKVVKGVGGSQPLRAIGILKKLCNHPNLLNFEDEFDDEDDLELPDDYNMPGSKARDVQTKYSAKFSILERFLHKIKTESDDKIVLISNYTQTLDLIEKMCRYKHYSAVRLDGTMSINKRQKLVDRFNDPEGQEFIFLLSSKAGGCGINLIGANRLILMDPDWNPAADQQALARVWRDGQKKDCFIYRFISTGTIEEKIFQRQSMKMSLSSCVVDAKEDVERLFSSDNLRQLFQKNENTICETHETYHCKRCNAQGKQLKRAPAMLYGDATTWNHLNHDALEKTNDHLLKNEHHYNDISFAFQYISH
